Assay results taken from article PMC10626543.
These are yes or no findings as the source states them, for the method shown. In cells and extracts the contact can be indirect. A yes stands for co-enrichment or nearness to the bait. Other partners may have been found.

The chains behind the UniProt entries cited, without tags or fusion partners. Residues count along the entry.
UniProt P48678, residues 1-647: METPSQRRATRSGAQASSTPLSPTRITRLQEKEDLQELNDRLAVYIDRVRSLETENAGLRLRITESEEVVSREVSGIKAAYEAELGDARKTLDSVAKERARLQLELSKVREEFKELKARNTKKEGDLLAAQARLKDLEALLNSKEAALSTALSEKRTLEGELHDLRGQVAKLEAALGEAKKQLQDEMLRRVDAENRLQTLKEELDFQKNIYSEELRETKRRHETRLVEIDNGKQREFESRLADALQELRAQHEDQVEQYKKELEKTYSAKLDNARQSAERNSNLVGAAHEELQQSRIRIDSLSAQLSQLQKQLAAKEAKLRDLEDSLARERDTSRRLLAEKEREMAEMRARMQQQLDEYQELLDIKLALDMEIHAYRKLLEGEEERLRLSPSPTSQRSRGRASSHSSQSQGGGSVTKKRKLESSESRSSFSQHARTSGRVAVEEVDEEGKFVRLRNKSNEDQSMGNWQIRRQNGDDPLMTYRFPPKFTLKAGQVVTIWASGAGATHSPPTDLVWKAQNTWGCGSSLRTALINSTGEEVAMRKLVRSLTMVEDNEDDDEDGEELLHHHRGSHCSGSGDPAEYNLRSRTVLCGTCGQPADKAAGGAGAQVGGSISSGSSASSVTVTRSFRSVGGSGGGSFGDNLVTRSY

These binders were tested against native lamin A/C (mouse (endogenous in heart, skeletal muscle and brain)) (UniProt P48678) (assay: affinity purification with mass spectrometry; native lamin A/C immunoprecipitated with mAb 4C11 and Protein G Sepharose from sonicated skeletal muscle lysates of old IL10-KO and control C57Bl/6 female mice (five each); 50 mM Tris pH 7.4, 300 mM NaCl, 0.3% Triton X-100, 4°C; TMT 10-plex).

Binder | binding
Map2k3 (protein, UniProt O09110 1-347) MESPAASPPASLPQTKGKSKRKKDLRISCVSKPPVSNPTPPRNLDSRTFITIGDRNFEVEADDLVTISELGRGAYGVVEKVRHAQSGTIMAVKRIRATVNTQEQKRLLMDLDINMRTVDCFYTVTFYGALFREGDVWICMELMDTSLDKFYRKVLEKNMKIPEDILGEIAVSIVRALEHLHSKLSVIHRDVKPSNVLINKEGHVKMCDFGISGYLVDSVAKTMDAGCKPYMAPERINPELNQKGYNVKSDVWSLGITMIEMAILRFPYESWGTPFQQLKQVVEEPSPQLPADQFSPEFVDFTSQCLRKNPAERMSYLELMEHPFFTLHKTKKTDIAAFVKEILGEDS | binds
Lmcd1 (mouse) (protein, UniProt Q8VEE1 1-365) MAKVAKDLNPGVQKMSLGQQQSARGVACLRCKGMCSGFEPHSWRKICKSCKCSQEEHCLSSDLDDDRKIGRLLMDSKYATLTARVKGGDGIRIYKRNRMIMTNPIATGKDPTFDTITYEWAPPGVTQKLGLQYMELIPKERQPVTGTEGALYRRRQLMHQLPIYDQDPSRCRGLVENELKAMEEFVKHYKSEALGVGEVALPGQGGLPKEENKTQEKPEGTETTAPTTNGSLGDPSKEVEYVCELCKGAAPVDSPVVYADRAGYSKQWHPTCFQCIKCSEPLVDLIYFWKDGAPWCGRHYCESVRPRCSGCDEIIFSEDYQRVEDLAWHRKHFICEGCEQLLSGRAYIVTKGQLLCPTCSKSKRS | binds
Fbp2 (fructose-1,6-bisphosphatase isozyme 2) (protein, UniProt P70695 1-339) MTDRSPFETDMLTLTRYVMEKGRQAKGTGELTQLLNSMLTAIKAISSAVRKAGLANLYGISGSVNVTGDEVKKLDVLSNSLVINMLQSSYSTCVLVSEENKEAVITAQERRGKYVVCFDPLDGSSNIDCLASIGTIFAIYRKTTEDEPSEKDALQPGRNIVAAGYALYGSATLVALSTGQGVDLFMLDPALGEFVLVEKDVRIKKKGKIFSLNEGYAKYFDAATAEYVQKKKFPEDGSEPYGARYVGSMVADVHRTLVYGGIFMYPANQKSPNGKLRLLYECNPVAYIIEQAGGMATTGTQPVLDVKPESIHQRVPLILGSPEDVQEYLSCVQRNQAGR | binds
14-3-3 protein gamma (protein, UniProt P61982 1-247) MVDREQLVQKARLAEQAERYDDMAAAMKNVTELNEPLSNEERNLLSVAYKNVVGARRSSWRVISSIEQKTSADGNEKKIEMVRAYREKIEKELEAVCQDVLSLLDNYLIKNCSETQYESKVFYLKMKGDYYRYLAEVATGEKRATVVESSEKAYSEAHEISKEHMQPTHPIRLGLALNYSVFYYEIQNAPEQACHLAKTAFDDAIAELDTLNEDSYKDSTLIMQLLRDNLTLWTSDQQDDDGGEGNN | binds

Continued, values first:

binding | Binder
binds | Map2k6 (protein, UniProt P70236 1-334) MSQSKGKKRNPGLKIPKEAFEQPQTSSTPPRDLDSKACISIGNQNFEVKADDLEPIVELGRGAYGVVEKMRHVPSGQIMAVKRIRATVNSQEQKRLLMDLDVSMRTVDCPFTVTFYGALFREGDVWICMELMDTSLDKFYKQVIDKGQTIPEDILGKIAVSIVKALEHLHSKLSVIHRDVKPSNVLINTLGQVKMCDFGISGYLVDSVAKTIDAGCKPYMAPERINPELNQKGYSVKSDIWSLGITMIELAILRFPYDSWGTPFQQLKQVVEEPSPQLPADKFSADFVDFTSQCLKKNSKERPTYPELMQHPFFTVHESKAADVASFVKLILGD
binds | Map2k4 (protein, UniProt P47809 1-397) MAAPSPSGGGGSGGGGGTPGPIGPPASGHPAVSSMQGKRKALKLNFANPPVKSTARFTLNPNTTGVQNPHIERLRTHSIESSGKLKISPEQHWDFTAEDLKDLGEIGRGAYGSVNKMVHKPSGQIMAVKRIRSTVDEKEQKQLLMDLDVVMRSSDCPYIVQFYGALFREGDCWICMELMSTSFDKFYKYVYSVLDDVIPEEILGKITLATVKALNHLKENLKIIHRDIKPSNILLDRSGNIKLCDFGISGQLVDSIAKTRDAGCRPYMAPERIDPSASRQGYDVRSDVWSLGITLYELATGRFPYPKWNSVFDQLTQVVKGDPPQLSNSEEREFSPSFINFVNLCLTKDESKRPKYKELLKHPFILMYEERTVEVACYVCKILDQMPATPSSPMYVD
binds | RanGap1 (protein, UniProt P46061 1-589) MASEDIAKLAETLAKTQVAGGQLSFKGKGLKLNTAEDAKDVIKEIEEFDGLEALRLEGNTVGVEAARVIAKALEKKSELKRCHWSDMFTGRLRSEIPPALISLGEGLITAGAQLVELDLSDNAFGPDGVRGFEALLKSPACFTLQELKLNNCGMGIGGGKILAAALTECHRKSSAQGKPLALKVFVAGRNRLENDGATALAEAFGIIGTLEEVHMPQNGINHPGVTALAQAFAINPLLRVINLNDNTFTEKGGVAMAETLKTLRQVEVINFGDCLVRSKGAVAIADAVRGGLPKLKELNLSFCEIKRDAALVVAEAVADKAELEKLDLNGNALGEEGCEQLQEVMDSFNMAKVLASLSDDEGEDEDEEEEGEEDDEEEEDEEDEEDDDEEEEEQEEEEEPPQRGSGEEPATPSRKILDPNSGEPAPVLSSPTPTDLSTFLSFPSPEKLLRLGPKVSVLIVQQTDTSDPEKVVSAFLKVASVFRDDASVKTAVLDAIDALMKKAFSCSSFNSNTFLTRLLIHMGLLKSEDKIKAIPSLHGPLMVLNHVVRQDYFPKALAPLLLAFVTKPNGALETCSFARHNLLQTLYNI
binds | Ppme1 (protein, UniProt Q8BVQ5 1-386) MSALEKSMHLGRLPSRPPLPGSGGSQSGAKMRMGPGRKRDFTPVPWSQYFESMEDVEVENETGKDTFRVYKSGSEGPVLLLLHGGGHSALSWAVFTAAIISRVQCRIVALDLRGHGETKVKNSEDLSAETMAKDVGNVVEAMYGDLPPPVMLIGHSMGGAIAVHTAAANLVPSLLGLCMIDVVEGTAMDALNSMQNFLRGRPKTFKSLENAIEWSVKSGQIRNLESARVSMVGQVKQCEGITSPEGSKSIVEGIIEEEEEDEEGSESVNKRKKEDDMETKKDHPYTWRIELAKTEKYWDGWFRGLSNLFLSCPIPKLLLLAGVDRLDKDLTIGQMQGKFQMQVLPQCGHAVHEDAPDKVAEAVATFLIRHRFAEPIGGFQCVFPGC
binds | Mindy1 (De-ubiquitinating enzyme) (protein, UniProt Q76LS9 1-468) MEQPQTENPAPSKATSAETVESENHEALSGPEKHPQDKDGADADGAAGEQEPGDQTLPPAQDGENLECPPPEASSSPPGPACGTSPKVETAEVCSRPQELPQSPRIQQPELDFYCVKWIPWKGERTPIITQSTNGPCPLLAIMNILFLQWKVKLPPQKEVITSDELLTHLGNCLLSIKPQEKSEGLQLNFQQNVDDAMTVLPKLATGLDVNVRFTGVSDFEYTPECSIFDLLGIPLYHGWLVDPQSPEAVSAVGKLSYNQLVEKIITCKHSSDSNLVTEGLVAEQFLETTAAQLTYHGLCELTAAATEDELSVFFRNNHFSTMTKHKSHLYLLVTDQGFLQEEQVVWESLHNVDGDSCFCDSDFHLSHSLGKSHGAEGGGGSPEKQLQVDQDYLIALSLQQQQQPQGTLGLSDLELAQQLQQEEYQQQQAVQPVRTRAPSPQGRGATSGRPAGERRQRSKTESDCVLL
